According to patent US20040014212A1, “Preparation and xenotransplantation or porcine islets” (priority 2000, published 2004):

Test system: porcine islets
Assay: Static glucose stimulation (SGS): insulin secretion of cultured porcine islets
Type: cell-based
Conditions: Lidocaine during pancreatic digestion
Excerpt: Static glucose stimulation (SGS) is used to assess in vitro function of the porcine islets by exposing them to low and high concentrations of glucose and theophylline. Determination of the in vitro insulin secretory capacity is undertaken on both free islets (after 3 days in culture) and after their subsequent encapsulation or confinement.
Keep the cells 3 days in culture before Static Glucose Stimulation (SGS). SGS involves exposure of the cells to low and high concentration of glucose to check insulin production. Using 0.1 ug/ml concentration add IGF1 and GPE to two plates 24 hours before SGS (day 2 after isolation)

## CCN(CC)CC(=O)Nc1c(C)cccc1C [Lidocaine, reference compound]
  increase of insulin production/g of pancreas: 6 fold
